# The campaign covered roughly 320,000 compounds. About 22,000 (6.9%) were called active. The shares of active, inactive and inconclusive entries below differ from those in the screen. Calls come from the whole dose curve; as a rule, active = well fitted inhibition curve with a large enough effect; inconclusive = small, poorly fitted or top-dose-only effect, or another doubt; inactive = no such curve, though single readings can be large or run the other way. Where the call is inconclusive, the potency comes from a doubtful curve fit.
# Assay: Primary qHTS for delayed death inhibitors of the malarial parasite plastid, 96 hour incubation
# Conditions: P. falciparum luciferase reporter growth; series mostly up to 28.7 µM; activity change, negative = inhibition: at the top concentration
# Method in brief: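 Two parasite generations (96 h, 37 C, 5% CO2) of compound exposure in infected erythrocytes (0.05% parasitemia, 2% hematocrit). Luciferase-reporter P. falciparum; decreased luminescence indicates inhibited growth, aimed at apicoplast-acting delayed death.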
# % is set by controls: 0 for no effect and ±100 for the full control effect; potency is the fitted concentration of half-maximal effect.
SMILES,Potency,"activity change, negative = inhibition"
CC(C)N(CCCNC(=O)C1CCN(C(=O)c2cc3sccc3n2C)CC1)Cc1ccccc1,active: 11.7 µM,
Cc1ccc(CCNC(=O)C23CN(Cc4ccccc4)CC2C(c2cccc([N+](=O)[O-])c2)=NO3)cc1 (stereo unspecified),"inconclusive: 3.29 µM [inhibitor, single point]",
CCN(CC)C(=O)c1cccc(NC(=O)CC23CC4CC(CC(C4)C2)C3)c1,"inconclusive: 8.28 µM [inhibitor, partial curve]",
NS(=O)(=O)c1ccc(CNC(=O)c2scc3c2CCCC3)cc1,"inconclusive: 18.5 µM [inhibitor, single point]",
Nc1c(C(=O)N/N=C/c2cccnc2)oc2nc(-c3ccccc3)cc(-c3ccco3)c12,"inconclusive: 8.28 µM [inhibitor, partial curve]",
O=C(OCc1cc(-c2ccccc2)no1)c1ccc2ccccc2n1,,inactive: 0%
O=C(Nc1ccc2c(c1)OCO2)c1ccccc1SCC(=O)N1CCCC1,"inconclusive: 4.15 µM [inhibitor, partial curve, poor fit]",
CC(C)(C)OC(=O)N1CCC[C@H]1c1nnc(SCc2ccc(Cl)cc2)o1,,inactive: -8.59%
O=[N+]([O-])c1ccc(-c2ccc(/C=N/O)o2)cc1,,inactive: 78.2%
COc1ccccc1C(=O)Nc1cc(-c2ccc(C)cc2)no1,,inactive: 48.9%
CC(=O)c1ccc2noc(-c3ccc(C)cc3)c2c1,"inconclusive: 13.1 µM [inhibitor, single point]",
O=C1NC(N2CCOCC2)=N/C1=C/c1ccc2c(c1)OCO2,,inactive: -28.7%
CCOc1ccc2nc(/N=C/c3nc(-c4ccccc4)oc3O)sc2c1,"inconclusive: 18.5 µM [inhibitor, single point]",
O=C(Nc1ccc(S(=O)(=O)N2CCCCC2)cc1)c1ccc(CN2CCOCC2)cc1,,inactive: -23%
Cc1cc(C)c(-n2c(C)cc(/C=C3/NC(=O)NC3=O)c2C)c(C)c1,active: 5.86 µM,
CC(O)(CS(=O)(=O)c1ccccc1)C(=O)Nc1cccc(C(F)(F)F)c1 (stereo unspecified),"inconclusive: 4.15 µM [inhibitor, partial curve, poor fit]",
COc1ccc(OC)c(CCNC(=O)Cn2cccc2C(=O)c2ccccc2)c1,,inactive: 20.1%
COc1ccccc1NC(=O)Cc1noc(CSc2nnc(C)s2)n1,"inconclusive: 9.28 µM [inhibitor, single point]",
S=c1[nH]c(-c2ccccc2)cn1/N=C/c1cccnc1,,inactive: 8.4%
COc1ccc(-c2c(-c3ccccc3OC)sc3ccccc23)cc1C=O,"inconclusive: 13.1 µM [inhibitor, single point]",
CCOc1ccc(S(=O)(=O)n2nc(C)c(S(=O)(=O)N3CCOCC3)c2C)cc1,"inconclusive: 3.29 µM [inhibitor, full curve, poor fit]",
CCCOc1ccc(-c2cc(C(F)(F)F)c(C#N)c(SCC(=O)O)n2)cc1,"inconclusive: 11.7 µM [inhibitor, single point]",
Cn1cc(/C=N/NC(=O)c2ccccc2O)c2ccccc21,,inactive: 82%
Cc1nc(N2CCC(C)CC2)c2c(C)c(C(=O)Nc3ccccc3C(F)(F)F)sc2n1,"inconclusive: 0.586 µM [inhibitor, full curve]",

SMILES,Potency,"activity change, negative = inhibition"
O=C(COC(=O)Cc1ccc(S(=O)(=O)N2CCOCC2)s1)Nc1ccc([N+](=O)[O-])cc1,"inconclusive: 13.1 µM [inhibitor, partial curve, poor fit]",
Cc1ccc(C)c(N2CCN(C(=O)c3cc4sccc4n3C)CC2)c1,,inactive: 36.6%
COc1ccc(NC(=O)c2ccc3c(c2)C(=O)N(CC2CCCO2)C3=O)cc1O (stereo unspecified),,inactive: 3.6%
CCc1ccc(OCC(=O)Nc2ccc(-c3cc4ccccc4oc3=O)c(OC)c2)cc1,"inconclusive: 9.28 µM [inhibitor, partial curve, poor fit]",
COc1ccc(/C=C(/CC(=O)NCc2ccc(Cl)cc2)c2nc3ccccc3s2)cc1,"inconclusive: 16.5 µM [inhibitor, single point]",
CC(C)(C)c1cc(CCC(=O)NN)cc(C(C)(C)C)c1O,,inactive: -0.272%
O=C(CSc1nnc(COc2ccccc2Cl)o1)NC(=O)NCc1ccco1,"inconclusive: 9.28 µM [inhibitor, single point]",
Cc1cc(Br)ccc1OCC(=O)NNC(=O)c1cnccn1,active: 11.7 µM,
Cc1onc(-c2c(F)cccc2Cl)c1C(=O)NCc1ccco1,active: 1.47 µM,
N#CC(C#N)=Cc1cc2ccccc2nc1N1CCOCC1,,inactive: 15.9%
COc1ccc(NC(=O)C2CCCN2S(=O)(=O)c2ccc3c(c2)CCC(=O)N3)cc1 (stereo unspecified),"inconclusive: 0.294 µM [inhibitor, partial curve, poor fit]",
Fc1ccccc1CNCc1ccc2c(c1)OCO2,"inconclusive: 18.5 µM [inhibitor, single point]",
CC(=O)Nc1ccc(S(=O)(=O)NCCc2cc3ccc(C)c(C)c3[nH]c2=O)cc1,"inconclusive: 10.4 µM [inhibitor, partial curve, poor fit]",
CCCCn1[nH]c(-c2ccccc2)cc1=O,,inactive: 0%
CCN(CC)c1ccc(O)c(C=Nc2ccc(C)c(C)c2)c1,"inconclusive: 1.85 µM [inhibitor, partial curve, poor fit]",
N=c1c(C(=O)NCc2ccc(F)cc2)cc2c(=O)n3ccccc3nc2n1Cc1ccco1,"inconclusive: 5.22 µM [inhibitor, single point]",
CCOc1ccccc1NC(=S)N1CCN(c2ccccc2F)CC1,"inconclusive: 18.5 µM [inhibitor, single point]",
COc1ccc(NS(=O)(=O)c2ccc(N3CCOCC3)c(NC(=O)c3ccccc3Cl)c2)cc1,,inactive: 0%
CN(C)S(=O)(=O)c1cccc(NC(=O)COC(=O)c2cccc(S(=O)(=O)N3CCc4ccccc4C3)c2)c1,,inactive: 15.8%
CCCCN(C(=O)c1c(CC)noc1C)c1c(N)n(CCC)c(=O)[nH]c1=O,,inactive: 22.5%
COc1cccc(/C=N/NC(=O)CSc2ccccc2C)c1OC,,inactive: 1.55%
CC(=O)Nc1ccc(NS(=O)(=O)c2ccccc2)cc1,"inconclusive: 18.5 µM [inhibitor, single point]",
CCN(CC)S(=O)(=O)c1cccc(NC(=O)C2SC(=Nc3ccc(C)cc3C)C(C(=O)NC(C)COC)=C2N)c1 (stereo unspecified),active: 3.7 µM,
CC1CCN(CCC(=O)Nc2ccc3c(c2)CCC3)CC1,,inactive: -9.02%

# 3 compounds from above, sorted by SMILES length, falling:
SMILES,Potency,"activity change, negative = inhibition"
CN(C)S(=O)(=O)c1cccc(NC(=O)COC(=O)c2cccc(S(=O)(=O)N3CCc4ccccc4C3)c2)c1,,inactive: 15.8%
O=C(COC(=O)Cc1ccc(S(=O)(=O)N2CCOCC2)s1)Nc1ccc([N+](=O)[O-])cc1,"inconclusive: 13.1 µM [inhibitor, partial curve, poor fit]",
O=C(Nc1ccc2c(c1)OCO2)c1ccccc1SCC(=O)N1CCCC1,"inconclusive: 4.15 µM [inhibitor, partial curve, poor fit]",

# Continued:

SMILES,Potency,"activity change, negative = inhibition"
CC(C)CN(C(=O)CCCSc1nc2ccccc2[nH]1)c1c(N)n(Cc2ccccc2)c(=O)[nH]c1=O,"inconclusive: 7.38 µM [inhibitor, partial curve]",
O=C(COc1ccccc1C(=O)N/N=C\c1ccc(O)c(O)c1)N/N=C/c1ccc(O)c(O)c1,"inconclusive: 0.0465 µM [inhibitor, full curve, poor fit]",
c1ccc2oc(C3=NNC(=NC4CC4)SC3)cc2c1,"inconclusive: 18.5 µM [inhibitor, single point]",
COc1ccc(CCC(=O)OCC(=O)c2c(N)n(CC(C)C)c(=O)n(C)c2=O)cc1,"inconclusive: 11.7 µM [inhibitor, single point]",
O=C(CN1CCOCC1)Nc1c2c(nc3ccccc13)N(Cc1ccccc1)CC2,,inactive: -13.5%
CC1CN(Cc2ccccc2)c2nc3c(c(=O)n(C)c(=O)n3C)n2C1 (stereo unspecified),"inconclusive: 4.15 µM [inhibitor, single point]",
COCCNC(=O)C(=O)Nc1ccc(Br)cc1,"inconclusive: 18.5 µM [inhibitor, single point]",
O=C(/C=C/c1c(F)cccc1Cl)NCc1ccco1,,inactive: 113%
COC(=O)c1cccnc1NC(=S)NC1CCCCC1,"inconclusive: 1.47 µM [inhibitor, single point]",
Cc1ccc2[nH]c3c(NCCCN4CCCC4=O)ncnc3c2c1,"inconclusive: 11.7 µM [inhibitor, single point]",
O=C(COC(=O)c1ccc(O)cc1)Nc1ccc(Cl)cc1C(=O)c1ccccc1,"inconclusive: 11.7 µM [inhibitor, single point]",
CC(c1ccccc1)C1CC(=O)N(CC(=O)O)C1=O (stereo unspecified),,inactive: 37.3%
O=C(OCC(=O)N1CCN(c2ccccc2)CC1)c1nc(Cl)ccc1Cl,,inactive: 33.6%
COc1cc(CO)c(Br)cc1OCC(=O)Nc1ccccc1C,"inconclusive: 2.33 µM [inhibitor, partial curve, poor fit]",
COCc1c(Br)c(C)nc(OCC(=O)N/N=C/c2cc(C)n(-c3ccc([N+](=O)[O-])cc3)c2C)c1C#N,"inconclusive: 3.7 µM [inhibitor, single point]",
CCOc1cc(C2C(C(=O)c3ccco3)=C(O)C(=O)N2Cc2ccccc2)ccc1O (stereo unspecified),,inactive: 10.9%
COc1ccc(NC(=S)Nc2ccc(OC)cc2OC)c(OC)c1,,inactive: 7.25%
O=C(CCNS(=O)(=O)c1ccc(Br)cc1)Nc1cccc(F)c1,,inactive: 26.8%
O=C(N/N=C/c1cccc([N+](=O)[O-])c1)c1cc2c(ccc3ccccc32)o1,"inconclusive: 0.0738 µM [inhibitor, full curve, poor fit]",
CNC(=S)N/N=C/c1c(C(=O)OC)cnn1-c1ccc(F)cc1F,"inconclusive: 11.7 µM [inhibitor, partial curve, poor fit]",
CCOc1ccc(NC(=O)CN2CCc3cc4c(cc3C2)OCCCO4)cc1OCC,"inconclusive: 18.5 µM [inhibitor, single point]",
COC(=O)c1[nH]c2ccc(C)cc2c1NC(=O)CN1CCC(C)CC1,"inconclusive: 1.17 µM [inhibitor, single point]",
O=C(Cc1ccccc1)Nc1ccc(NC(=O)Cc2ccccc2)c(Cl)c1,"inconclusive: 11.7 µM [inhibitor, single point]",

# From PubChem BioAssay AID504834 (National Center for Advancing Translational Sciences (NCATS), 2011)
